Assay results as given in patent US20240254086A1, “(HETERO)ARYLAMIDE COMPOUND AND PEST CONTROL AGENT” (Nippon Soda Co., Ltd., priority 2021, published 2024).
Some entries share one result that the patent states for a list of compounds.

Tested on: Mythimna separata
Experiment: Efficacy test against Mythimna separata (maize leaf dip)
Type: in vivo
Conditions: 125 ppm by mass, maize leaf pieces, second-instar larvae, 6 days
From the text: 5 parts by mass of the compound of the present invention, 93.6 parts by mass of dimethylformamide, and 1.4 parts by mass of polyoxyethylene alkylaryl ether were mixed and dissolved to prepare an emulsion (I) containing 5% of an active ingredient.
Maize leaf pieces were immersed in the diluent solution for 30 seconds. These maize leaf pieces were placed in a petri dish, and five second-instar larvae of Mythimna separata were released to prepare an emulsion-treated section.
Similarly, the solvent control solution was diluted with water at the same ratio as that of the emulsion (I), and maize leaf pieces were immersed therein for 30 seconds. These maize leaf pieces were placed in a petri dish, and five second-instar larvae of Mythimna separata were released to prepare a solvent control section.
The petri dishes were left to stand in a thermostatic chamber at a temperature of 25° C. and a humidity of 60% during the test period. Mortality was evaluated at a time of passage of 6 days from the release of the insects, and the insecticidal rate in the emulsion-treated section was calculated, based on the following expression. At the same time, the food consumptions in the emulsion-treated section and the solvent control section were measured. The test was repeated twice.
Insecticidal rate (%)=(Number of dead insects/Number of test insects)×100

Row | SMILES | food consumption in terms of the solvent control section ratio
1 | CCSCCC(CC)(CC)CNC(=O)c1cc(C#N)c(-c2ccc(OC(F)(F)F)cc2OC)nc1C [A-27] | ≤ 10%
2 | CCSCCC(C)(C)CN(C)C(=O)c1cc(C#N)c(-c2ccc(C(F)(C(F)(F)F)C(F)(F)F)cc2)nc1C [A-105] | ≤ 10%
